Data set [1] is described as follows: in vivo. The settings on record: mouse, 60 mg/kg.
Data set [2] in a line: Plasma protein binding, species m. The settings on record: mouse. Type of data set: in vitro ADME.
Data set [3] is described as follows: Plasma protein binding, species h. Type of data set: in vitro ADME. The settings on record: human.

In the case of `CCC[C@@H]1C[C@@H](C(=O)N[C@@H]([C@H]2O[C@H](SC)[C@H](O)[C@@H](O)[C@H]2O)[C@H](C)Cl)N(C)C1` [Clindamycin, clindamycin, reference compound], in data set [1] (iv), the AUC – broadly, concentration integrated over time – came out at 2100 ± 500 ng·h/mL; the highest level (Cmax) was 2900 ± 700 ng/mL; the MRT (as a rule, the average time that molecules of a dose stay in the body) stood at 54 ± 18 min. Moreover, in data set [1] (po), the AUC is 510 ± 90 ng·h/mL and the Cmax (usually the highest concentration seen after dosing) was determined as 520 ± 100 ng/mL. The fraction unbound – broadly, free concentration divided by total concentration – in data set [2] was 0.28. Moreover, the fraction unbound in data set [3] is 0.13.

(Values after patent publication US20230203081A1, “LINCOSAMIDE ANTIBIOTICS AND USES THEREOF” (President and Fellows of Harvard College, priority 2020, published 2023).)
